Results reported in PubChem BioAssay AID1259415 (National Center for Advancing Translational Sciences (NCATS), 2018).
Among all 410,000 compounds or so, about 18,000 (4.4%) were called active. The inconclusive results got no clear call from the source; some entries with a clear call stand among them for comparison. No stated cut-off is given here; in the data, active means activity change below about -60%; inconclusive means no clear call, values can overlap the other calls; inactive means above about -39%.

Test: qHTS Assay for inhibitors of the human cytomegalovirus (HCMV)
Conditions: HFF cells, HCMV-luciferase reporter, 72 h; at 57.5 µM; stronger effect = lower value
Procedure, shortened: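 Two compound doses tested in HFFs infected with HCMV-luciferase, MOI 1 PFU/cell, 72 h at 37C. Lysate luminescence read with OneGlo; data normalized against buffer-only and 10uM Salinomycin inhibitor controls.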
On the % scale 0 is the no-effect control and ±100 the full control effect.

SMILES	activity change, negative = inhibition
Cn1nc(C(F)(F)F)c(C#N)c1N1CCN(c2cccc(C(F)(F)F)c2)CC1	inconclusive: -44.6%
CC(C)(CNc1ccc([N+](=O)[O-])cc1Cl)N1CCOCC1	inconclusive: -50.8%
CC(C)=CCc1c2c(c3occ(-c4ccc(O)cc4)c(=O)c3c1O)C=CC(C)(C)O2	active: -106%
Cc1ccc(N2CCN(S(=O)(=O)c3cc(C(=O)Nc4cc(Cl)cc(Cl)c4)ccc3F)CC2C)cc1 (configuration not stated)	inactive: -39.9%
CC1CCCC(C)N1C(=C(Cl)Cl)C(=C1SCCS1)[N+](=O)[O-] (configuration not stated)	active: -69%
CSc1nc2[nH]c(=O)n(O)c(=O)c2n1Cc1ccccc1	inactive: 30.9%
O=C(N/N=C/C(Cl)=C/c1ccc([N+](=O)[O-])cc1)C(=O)Nc1ccc(C(=O)O)cc1	inconclusive: -40.5%
O=C(Nc1ccccc1Br)c1ccc(N2CCCC2=O)cc1	inactive: 33.8%
CN(CCCNC(=O)CCC(=O)N1CCOc2ccc(Cl)cc21)Cc1ccccc1	inconclusive: -49.1%
COc1ccc(CNS(=O)(=O)c2ccc3c(c2)CC(C)N3C(=O)C2CC2)cc1 (configuration not stated)	inconclusive: -45.1%
S=C(Nc1ccccc1)Nc1ccc(OCc2ccc(Cl)cc2Cl)cc1	active: -80.1%
S=C(NC1CCCC1)N1CCN(c2ccc(Cl)cc2)CC1	inconclusive: -44.5%
O=C(c1cc([N+](=O)[O-])ccc1Cl)N1CCN(c2ccc([N+](=O)[O-])cc2)CC1	inconclusive: -50.5%
CCOC(=O)c1ccc(CN(Cc2ccc(Cl)cc2Cl)S(=O)(=O)c2ccc(F)c(C)c2)cc1	inconclusive: -55.6%
O=C1C(NS(=O)(=O)c2cccs2)=C(N2CCN(c3cccc(Cl)c3)CC2)C(=O)c2ccccc21	inconclusive: -47.4%
CC(C)(C)C1CCC2(CC1)CC(=O)c1ccccc1O2 (configuration not stated)	active: -60.5%
COc1ccc(CC(=O)Nc2ccc(-c3noc(-c4ccc(Cl)cc4)n3)cc2)cc1	inconclusive: -51.1%
Cc1ccc(S(=O)(=O)N2CCN(C(=O)CSc3ccc(Cl)cc3)CC2)cc1	inconclusive: -42.6%
CCc1ccc2[nH]c(O)c(N=Nc3nc(-c4ccccc4)cs3)c2c1	inconclusive: -46.9%
O=C(NC(Nc1nc2ccc([N+](=O)[O-])cc2s1)(C(F)(F)F)C(F)(F)F)c1ccccc1Cl	inconclusive: -44.9%
CC(C)Cn1c(=O)c2sccc2n2c(CCCC(=O)NCCc3ccc(Cl)cc3)nnc12	inconclusive: -56.6%
O=C(Nc1ccc(Br)cc1)c1ccc(F)c(S(=O)(=O)N2CCCc3ccccc32)c1	active: -98.7%

SMILES	activity change, negative = inhibition
CC(=O)Oc1ccc(-c2ccc(C(=O)Nc3cccc(S(=O)(=O)N4CCOCC4)c3)cc2)cc1	active: -97.7%
CC(C)n1nc(C(=O)NNC(=O)c2ccc(OC(F)F)cc2)c2ccccc2c1=O	inactive: -15.5%
CC(=O)NS(=O)(=O)c1ccc(NS(=O)(=O)c2ccc3ccccc3c2)cc1	inconclusive: -51.9%
CCOc1cc(N2CCOCC2)c(OCC)cc1NC(=O)c1ccc(C)s1	inconclusive: -40.5%
Cc1nn(-c2ccccc2)c(-n2cccc2)c1C(=O)NCCc1ccc(Cl)cc1	active: -99.8%
Cc1[nH]c2ccccc2c1C(=O)COC(=O)c1c(-c2c(F)cccc2Cl)noc1C	active: -71%
COc1cc2[nH]c(=S)nc(NCC3CCCO3)c2cc1OC (configuration not stated)	inactive: 25.3%
COc1ccc(/C=C\C(=O)CC(O)(c2ccccc2)C(F)(F)F)cc1 (configuration not stated)	inactive: 62.8%
COc1cccc(C(=O)C2CCCN(Cc3cccc(C)n3)C2)c1 (configuration not stated)	inconclusive: -58%
C=CCn1c(O)c(C(C)=Nc2ccc(N(CC)CC)cc2)c(=O)[nH]c1=O	inactive: 39.1%
Cc1sc(NC(=O)c2ccco2)c(C(c2cccnc2)N2CCC(C)CC2)c1C (configuration not stated)	active: -92.8%
CC(C)(C)NS(=O)(=O)c1ccc(OCC(=O)NCC2CCCO2)cc1 (configuration not stated)	inconclusive: -43.3%
O=[N+]([O-])c1cc2c(c(CSc3nnc(Nc4ccccc4)s3)c1)OCOC2	inconclusive: -44.8%
COn1c2c(c3c4no[n+]([O-])c4ccc31)CCCC2	inconclusive: -46.7%
Cc1nc2c(-c3ccc(F)cc3)c(C)nn2c(C)c1CCC(=O)Nc1ccccc1F	inactive: -24%
COc1ccccc1C(=O)NCCn1cc(SCc2ccc(C)cc2)c2ccccc21	inactive: -15.3%
CCC1CCc2nc3sc(C(=O)Nc4ccc(C)cc4)c(N)c3cc2C1 (configuration not stated)	inactive: -1.03%
COc1ccc(OCCCCc2c(C)n[nH]c2C)cc1	inconclusive: -54.8%
CCC(C(=O)NCCc1ccc(OC)cc1OC)n1nc(C)n2c(cc3occc32)c1=O (configuration not stated)	inconclusive: -41.3%
CC1CC(=O)C(C(C2=C(O)CC(C)CC2=O)c2ccccc2)=C(O)C1 (configuration not stated)	inconclusive: -42.3%
COc1ccc(S(=O)(=O)NC2CCCC2)cc1Cl	inconclusive: -44.1%
Cc1ccc(C)c(-n2c3nc(=O)[nH]c(=O)c-3cc3c(C)nn(-c4ccccc4)c32)c1	inactive: 0.81%

SMILES	activity change, negative = inhibition
CCc1ccc(NC(=O)c2ccc(F)c(S(=O)(=O)N3CCC4(CC3)OCCO4)c2)cc1	active: -89.9%
O=S(=O)(NCCc1ccc(Cl)cc1)c1cccc2cccnc12	inactive: 1.96%
O=C(C1=C[C@H](C2CCCCC2)C[C@H](OCc2ccc(CO)cc2)O1)N1CCOCC1	inconclusive: -46.7%
CCOC(=O)c1cc(NC(=O)c2ccc(C)cc2)c(=O)oc1C(F)(F)F	inconclusive: -52.8%
COc1ccc(CN2CN(C3CCCC3)CSC2=S)cc1	inconclusive: -45.9%
COc1ccc(S(=O)(=O)N2CCC(n3cnc4ccccc43)CC2)cc1	inactive: 8.56%
C/C(=N\NC(=O)c1cc([N+](=O)[O-])cc([N+](=O)[O-])c1)c1ccco1	inconclusive: -43.3%
CC(=O)N1CCC(=NNc2ccnc3cc(Cl)ccc23)CC1	inconclusive: -42.5%
Cc1cccc(-c2cccc3nccn23)c1	inactive: -11.9%
Oc1ccccc1/C=N/n1cnn(Cc2ccccc2Cl)c1=S	inconclusive: -49.4%
COC(=O)c1cc(C(=O)N2CCN(c3ccccc3OC)CC2)cc([N+](=O)[O-])c1	inconclusive: -57.3%
COC(=O)c1ccc(Cl)c(NC(=O)Cc2ccccc2[N+](=O)[O-])c1	active: -71.7%
Cc1cc2c(cc1C)-n1nnnc1C(N1CCN(CC(=O)NC(C)C)CC1)C(=O)N2 (configuration not stated)	inactive: 32.5%
CC(C)c1cccc(-c2csc(C(O)c3ccc(F)c(F)c3)n2)c1 (configuration not stated)	active: -69.8%
CCOC(=O)c1c(NC(=O)C2c3ccccc3Oc3ccccc32)sc(C(N)=O)c1C	inconclusive: -48.3%
Cc1cc(C)cc(OCC(=O)NC2CCCc3ccccc32)c1 (configuration not stated)	inactive: 1.38%
Cn1c(=O)c2nc(SCc3ccccc3)n(C)c2n(C)c1=O	inactive: -29.4%
Cc1c[n+](CC(=O)c2ccccc2)cs1	inactive: -3.68%
Cc1ccc(CNC(=O)CCN2C(=O)COc3ccc(C)cc32)cc1	inconclusive: -59.7%
Cc1ccc(S(=O)(=O)c2nc(Nc3ccccc3)sc2Cl)cc1	active: -73.9%
CCCCOC(=O)/C=C/c1c(C)[nH]c(=O)[nH]c1=O	inconclusive: -57.3%
O=C(CSc1oc(-c2ccco2)nc1S(=O)(=O)c1ccc(Br)cc1)c1ccccc1	inactive: -20.5%

A different layout for some results above:
SMILES | activity change, negative = inhibition
CCOC(=O)c1ccc(CN(Cc2ccc(Cl)cc2Cl)S(=O)(=O)c2ccc(F)c(C)c2)cc1 | inconclusive: -55.6%
CC(C)Cn1c(=O)c2sccc2n2c(CCCC(=O)NCCc3ccc(Cl)cc3)nnc12 | inconclusive: -56.6%

Additional compounds.

SMILES	activity change, negative = inhibition
O=C(NCCc1ccccc1F)c1cc(COc2ccc(F)cc2F)on1	inactive: -6.9%
COc1ccc(CC(=O)NNS(=O)(=O)c2ccccc2)cc1OC	inconclusive: -43%
CCOc1ccccc1NC(=O)CCN(c1ccc(C)cc1)S(=O)(=O)c1ccccc1	inconclusive: -55.9%
O=[N+]([O-])c1ccc(O)c(C2CCCCC2)c1	active: -93.6%
Cc1nn(CC(=O)O)c(=O)c2cc3cc(F)ccc3n12	inactive: 31%
COC(=O)COc1ccc(C)cc1-n1nc2ccccc2n1	inconclusive: -56.2%
COc1ccccc1NS(=O)(=O)c1ccc(N/N=C(\C)C(C)C)c([N+](=O)[O-])c1	active: -61.1%
CCn1c(C(=O)NCc2ccc(OC(C)C)cc2)cc2oc3ccccc3c21	active: -79%
CCOc1ccc(S(=O)(=O)Nc2cccc(C(=O)N3CCN(c4cccc(OC)c4)CC3)c2)cc1	inconclusive: -41.6%
Cc1ccc(C)c(N2CCN(c3ccc4cc(S(=O)(=O)N5CCC(C)CC5)ccc4n3)CC2)c1	inactive: 19%
CC(=Nc1ccc2c(c1)CCC2)c1c(O)n(C2CCCCC2)c(=O)[nH]c1=O	inactive: -14.8%
NC(=O)c1cccc([N+](=O)[O-])c1	inactive: -1.84%
COc1ccc(C(=S)N2CCN(c3ccccc3C)CC2)cc1	inconclusive: -56.9%
CCCc1nnc(NC(=O)CSc2nnc(-c3ccco3)n2C)s1	inactive: -12%
CCOC(=O)C1C(=O)CC(C)(O)C(C(=O)OCC)C1c1ccc(OCC)cc1 (configuration not stated)	inactive: 63.7%
CC(NCC(O)COc1ccc2ccccc2c1)c1ccccc1 (configuration not stated)	active: -84.1%
COc1cc2ccccc2cc1C(=O)N1CCCC1	inactive: -4.71%
Cc1ccccc1Cn1c2ccccc2c2cnn(CC(=O)NC(C)CCc3ccccc3)c(=O)c21 (configuration not stated)	active: -75.2%
CC(C)c1ccc(NC(=O)c2ccc3c(c2)CCN3S(C)(=O)=O)cc1	inconclusive: -52%
CCCCC(=O)NC(NC(=S)N1CCCCCC1)C(Cl)(Cl)Cl (configuration not stated)	inconclusive: -52.8%
Cc1nc(NCc2ccco2)c2oc3ccccc3c2n1	inconclusive: -50.9%

2 entries picked at random from the list so far, as already listed:
SMILES	activity change, negative = inhibition
Cc1ccccc1Cn1c2ccccc2c2cnn(CC(=O)NC(C)CCc3ccccc3)c(=O)c21 (configuration not stated)	active: -75.2%
COc1ccc(C(=S)N2CCN(c3ccccc3C)CC2)cc1	inconclusive: -56.9%
